In this experiment the target is T1, C9ORF80, His-tagged (human), Q9NRY2.
T1 chain: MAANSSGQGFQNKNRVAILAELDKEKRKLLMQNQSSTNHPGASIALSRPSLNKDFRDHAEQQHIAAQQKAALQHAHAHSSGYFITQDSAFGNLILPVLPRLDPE
Nature of the experiment: SEC-MALS; C9ORF80 500 ul at 4.2 mg/ml on SEC 70 column (Bio-Rad) in buffer D (25 mM Tris pH 8.0, 0.5 M NaCl, 100 uM Tween 20, 10% glycerol); both purified. Particulars: remark: other sources report otherwise.

These are yes or no findings as the source states them, for the method shown. Tags and fused reporters may be left off the sequences shown.

B1: C9ORF80, His-tagged, Q9NRY2 1-104 (protein)
chain: MAANSSGQGFQNKNRVAILAELDKEKRKLLMQNQSSTNHPGASIALSRPSLNKDFRDHAEQQHIAAQQKAALQHAHAHSSGYFITQDSAFGNLILPVLPRLDPE
Turning to B1, the binding entry is listed as “no binding (tested: 4.2 mg/ml)”.

Source of the values: article PMC5748837.
